{"source": "PubChem BioAssay AID1224828 (NIAID, 2016)", "assay": "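Regulators linking TLR4 signalling to p65 nuclear translocation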 (primary screen)", "cells": "mouse RAW264.7 G9 macrophage reporter cells (GFP-p65, Tnf promoter-mCherry)", "reagents": "siRNA pool against mouse genes, 100 nM", "timing": "2 days siRNA transfection, then 40 min LPS before fixation", "treatment": "LPS (Salmonella minnesota R595) at 10 ng/ml", "detection": "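Microscopy ratio of nuclear to perinuclear-ring GFP-p65 signal, scaled to the plate median; gene score is the average of two replicate robust z-scores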", "direction": "p65 translocation robust z-score: higher = more nuclear NF-kappaB p65 after LPS than the plate median; nuclear/cytoplasmic p65 ratio: higher = more nuclear NF-kappaB p65", "active means": "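Called active when z exceeds 3.3 or falls under -1.56 (median of Tlr4 controls), giving activity score of at least 50; no calls for control wells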", "calls": "active = hit (p65 shift raised or lowered); inactive = no clear change", "note": "The deposit covers about 17,000 reagents; shown is an unselected part. In the full data, 762 (4.5%) were called active. 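Active calls include both raised and lowered p65 entry, mostly lowered; wells with fewer than 50 cells lack a z-score.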 Raw values vary from plate to plate and are shown uncorrected."}
{"Gene":"Surf1 (surfeit gene 1)","p65 translocation robust z-score":-0.44,"nuclear/cytoplasmic p65 ratio, rep 1":1.51,"nuclear/cytoplasmic p65 ratio, rep 2":1.46,"low cell count flag":"enough cells to score","outcome":"inactive"}
{"Gene":"Utrn (utrophin)","p65 translocation robust z-score":-0.56,"nuclear/cytoplasmic p65 ratio, rep 1":1.44,"nuclear/cytoplasmic p65 ratio, rep 2":1.42,"low cell count flag":"enough cells to score","outcome":"inactive"}
{"Gene":"Gigyf1 (GRB10 interacting GYF protein 1)","p65 translocation robust z-score":1.41,"nuclear/cytoplasmic p65 ratio, rep 1":1.65,"nuclear/cytoplasmic p65 ratio, rep 2":1.38,"low cell count flag":"enough cells to score","outcome":"inactive"}
{"Gene":"Or5g9 (olfactory receptor family 5 subfamily G member 9)","p65 translocation robust z-score":0.1,"nuclear/cytoplasmic p65 ratio, rep 1":1.7,"nuclear/cytoplasmic p65 ratio, rep 2":1.57,"low cell count flag":"enough cells to score","outcome":"inactive"}
{"Gene":"Ace2 (angiotensin converting enzyme 2)","p65 translocation robust z-score":1.02,"nuclear/cytoplasmic p65 ratio, rep 1":1.84,"nuclear/cytoplasmic p65 ratio, rep 2":1.7,"low cell count flag":"enough cells to score","outcome":"inactive"}
{"Gene":"4930447C04Rik (RIKEN cDNA 4930447C04 gene)","p65 translocation robust z-score":1.22,"nuclear/cytoplasmic p65 ratio, rep 1":1.2,"nuclear/cytoplasmic p65 ratio, rep 2":1.45,"low cell count flag":"enough cells to score","outcome":"inactive"}
{"Gene":"Nlrp4c (NLR family, pyrin domain containing 4C)","p65 translocation robust z-score":1.39,"nuclear/cytoplasmic p65 ratio, rep 1":1.61,"nuclear/cytoplasmic p65 ratio, rep 2":1.37,"low cell count flag":"enough cells to score","outcome":"inactive"}
{"Gene":"Ccl7 (C-C motif chemokine ligand 7)","p65 translocation robust z-score":1.02,"nuclear/cytoplasmic p65 ratio, rep 1":1.66,"nuclear/cytoplasmic p65 ratio, rep 2":1.46,"low cell count flag":"enough cells to score","outcome":"inactive"}
{"Gene":"Vdac2 (voltage-dependent anion channel 2)","p65 translocation robust z-score":-0.37,"nuclear/cytoplasmic p65 ratio, rep 1":1.37,"nuclear/cytoplasmic p65 ratio, rep 2":1.16,"low cell count flag":"enough cells to score","outcome":"inactive"}
{"Gene":"Spi1 (Spi-1 proto-oncogene)","p65 translocation robust z-score":-2.23,"nuclear/cytoplasmic p65 ratio, rep 1":1.31,"nuclear/cytoplasmic p65 ratio, rep 2":1.15,"low cell count flag":"enough cells to score","outcome":"active"}
{"Gene":"Tti2 (TELO2 interacting protein 2)","p65 translocation robust z-score":1.36,"nuclear/cytoplasmic p65 ratio, rep 1":1.74,"nuclear/cytoplasmic p65 ratio, rep 2":2.12,"low cell count flag":"enough cells to score","outcome":"inactive"}
{"Gene":"Ankra2 (ankyrin repeat family A member 2)","p65 translocation robust z-score":1.5,"nuclear/cytoplasmic p65 ratio, rep 1":1.82,"nuclear/cytoplasmic p65 ratio, rep 2":1.93,"low cell count flag":"enough cells to score","outcome":"inactive"}
{"Gene":"Cntnap5b (contactin associated protein-like 5B)","nuclear/cytoplasmic p65 ratio, rep 1":1.3,"nuclear/cytoplasmic p65 ratio, rep 2":1.25,"low cell count flag":"fewer than 50 cells per well; well left out of scoring","outcome":"inactive"}
{"Gene":"H2-M10.6 (histocompatibility 2, M region locus 10.6)","p65 translocation robust z-score":2.98,"nuclear/cytoplasmic p65 ratio, rep 1":2.05,"nuclear/cytoplasmic p65 ratio, rep 2":2.02,"low cell count flag":"enough cells to score","outcome":"inactive"}
{"Gene":"Abca7 (ATP-binding cassette, sub-family A member 7)","p65 translocation robust z-score":-1.08,"nuclear/cytoplasmic p65 ratio, rep 1":1.42,"nuclear/cytoplasmic p65 ratio, rep 2":1.54,"low cell count flag":"enough cells to score","outcome":"inactive"}
{"Gene":"Nelfcd (negative elongation factor complex member C/D, Th1l)","p65 translocation robust z-score":-1.46,"nuclear/cytoplasmic p65 ratio, rep 1":1.18,"nuclear/cytoplasmic p65 ratio, rep 2":1.04,"low cell count flag":"enough cells to score","outcome":"inactive"}
{"Gene":"Zfp715 (zinc finger protein 715)","p65 translocation robust z-score":0.59,"nuclear/cytoplasmic p65 ratio, rep 1":1.44,"nuclear/cytoplasmic p65 ratio, rep 2":1.57,"low cell count flag":"enough cells to score","outcome":"inactive"}
{"Gene":"Shisa7 (shisa family member 7)","p65 translocation robust z-score":0.51,"nuclear/cytoplasmic p65 ratio, rep 1":1.6,"nuclear/cytoplasmic p65 ratio, rep 2":1.66,"low cell count flag":"enough cells to score","outcome":"inactive"}
{"Gene":"Pus7 (pseudouridylate synthase 7)","p65 translocation robust z-score":-1.32,"nuclear/cytoplasmic p65 ratio, rep 1":1.27,"nuclear/cytoplasmic p65 ratio, rep 2":1.34,"low cell count flag":"enough cells to score","outcome":"inactive"}
{"Gene":"Farsb (phenylalanyl-tRNA synthetase, beta subunit)","p65 translocation robust z-score":-0.22,"nuclear/cytoplasmic p65 ratio, rep 1":1.51,"nuclear/cytoplasmic p65 ratio, rep 2":1.48,"low cell count flag":"enough cells to score","outcome":"inactive"}
{"Gene":"Or8c11 (olfactory receptor family 8 subfamily C member 11)","nuclear/cytoplasmic p65 ratio, rep 1":1.49,"nuclear/cytoplasmic p65 ratio, rep 2":1.41,"low cell count flag":"fewer than 50 cells per well; well left out of scoring","outcome":"inactive"}

Ordered by “nuclear/cytoplasmic p65 ratio, rep 2” (highest first): some entries from above.
{"Gene":"H2-M10.6 (histocompatibility 2, M region locus 10.6)","p65 translocation robust z-score":2.98,"nuclear/cytoplasmic p65 ratio, rep 1":2.05,"nuclear/cytoplasmic p65 ratio, rep 2":2.02,"low cell count flag":"enough cells to score","outcome":"inactive"}
{"Gene":"Ankra2 (ankyrin repeat family A member 2)","p65 translocation robust z-score":1.5,"nuclear/cytoplasmic p65 ratio, rep 1":1.82,"nuclear/cytoplasmic p65 ratio, rep 2":1.93,"low cell count flag":"enough cells to score","outcome":"inactive"}
{"Gene":"Cntnap5b (contactin associated protein-like 5B)","nuclear/cytoplasmic p65 ratio, rep 1":1.3,"nuclear/cytoplasmic p65 ratio, rep 2":1.25,"low cell count flag":"fewer than 50 cells per well; well left out of scoring","outcome":"inactive"}
